The other results are listed elsewhere or left out.
Key:
Test in all cases: glycan array binding signal (z-score within array); higher = stronger binding
Conditions in all cases: glycan notation: IUPAC condensed, linker removed
[1] = target: Gal3S(b1-3)[Fuc(a1-4)]GlcNAc
Summary of the method: (§1)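 Arrays were curated from the Consortium for Functional Glycomics database, 3228 in total, and kept only where the protein sequence was available. Binding is expressed as a within-array Z-score. This score was averaged across arrays of the same protein sequence at different concentrations or buffers and across linkers, and negative values can be read as non-binding.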

[2] = target: Gal3S(b1-4)Glc
Summary of the method: as §1

[3] = target: Gal3S(b1-4)Glc6S
Summary of the method: as §1

[4] = target: Gal3S(b1-4)GlcNAc
Summary of the method: as §1

[5] = target: Gal3S(b1-4)[Fuc(a1-3)]Glc6S
Summary of the method: as §1

[6] = target: Gal3S(b1-4)[Fuc(a1-3)]GlcNAc
Summary of the method: as §1

[7] = target: Gal3S(b1-4)[Fuc(a1-3)]GlcNAc6S
Summary of the method: as §1

[8] = target: Gal3S4S(b1-4)GlcNAc
Summary of the method: as §1

[9] = target: Gal3S6S(b1-4)GlcNAc
Summary of the method: as §1

[10] = target: Gal3S6S(b1-4)GlcNAc6S
Summary of the method: as §1

[11] = target: Gal4S(b1-4)GlcNAc
Summary of the method: as §1

[12] = target: Gal4S6S(b1-4)GlcNAc
Summary of the method: as §1

[13] = target: Gal6P(b1-4)GlcNAc
Summary of the method: as §1

[14] = target: Gal6S(b1-3)GlcNAc
Summary of the method: as §1

[15] = target: Gal6S(b1-3)GlcNAc6S
Summary of the method: as §1

[16] = target: Gal6S(b1-4)Glc
Summary of the method: as §1

[17] = target: Gal6S(b1-4)Glc6S
Summary of the method: as §1

[18] = target: Gal6S(b1-4)GlcNAc
Summary of the method: as §1

[19] = target: Gal6S(b1-4)GlcNAc6S
Summary of the method: as §1

[20] = target: GalNAc(a1-3)Gal
Summary of the method: as §1

[21] = target: GalNAc(a1-3)GalNAc
Summary of the method: as §1

[22] = target: GalNAc(a1-3)GalNAc(b1-3)Gal(a1-4)Gal(b1-4)Glc
Summary of the method: as §1

[23] = target: GalNAc(a1-3)GalNAc(b1-3)Gal(a1-4)Gal(b1-4)GlcNAc
Summary of the method: as §1

[24] = target: GalNAc(b1-3)Gal
Summary of the method: as §1

[25] = target: GalNAc(b1-3)Gal(a1-4)Gal(b1-4)GlcNAc
Summary of the method: as §1

[26] = target: GalNAc(b1-3)Gal(a1-4)Gal(b1-4)GlcNAc(b1-3)Gal(b1-4)Glc
Summary of the method: as §1

[27] = target: GalNAc(b1-3)Gal(a1-6)Gal(b1-4)Glc
Summary of the method: as §1

[28] = target: GalNAc(b1-3)GalNAc
Summary of the method: as §1

[29] = target: GalNAc(b1-3)GlcNAc
Summary of the method: as §1

[30] = target: GalNAc(b1-4)Gal(b1-4)Glc
Summary of the method: as §1

[31] = target: GalNAc(b1-4)GlcNAc
Summary of the method: as §1

[32] = target: GalNAc(b1-4)GlcNAc(b1-2)Man
Summary of the method: as §1

[33] = target: GalNAc(b1-4)GlcNAc(b1-2)Man(a1-3)[GalNAc(b1-4)GlcNAc(b1-2)Man(a1-6)]Man(b1-4)GlcNAc(b1-4)GlcNAc
Summary of the method: as §1

[34] = target: GalNAc(b1-4)GlcNAc(b1-3)GalNAc(b1-4)GlcNAc
Summary of the method: as §1

[35] = target: GalNAc(b1-4)GlcNAc6S
Summary of the method: as §1

[36] = target: GalNAc(b1-6)GalNAc
Summary of the method: as §1

[37] = target: GalNAc3S(b1-4)GlcNAc
Summary of the method: as §1

B1: Epa20 (Candida glabrata) (protein)
chain: MGSSHHHHHHSSGLVPRGSHMASSNIPNNYPLGCSNKYSGHLPGLKMELYSYNYVNPRHPDPQNPGKLDQLYDPNLLGTYECFDSSYKDINYPRVGYKSKTLIGRSDGVSGILNFNFVPPWGCMPQKGQLPPAYNFKSNITLSNFTMILFGYFKPKISGNHIFSLHGDDLIYLNFGAGNAFDCCRQESSADNFGNYQAFSLWGINWEKKTLTVYLDMNTYYPIRIFYNNRDYQAIFNFSFKTEFDSSPVIDFQDYFFFLRDIDGGCPGEV
glycan array binding signal (z-score) [1]: 0.569
glycan array binding signal (z-score) [2]: -0.287
glycan array binding signal (z-score) [3]: -0.099
glycan array binding signal (z-score) [4]: -0.516
glycan array binding signal (z-score) [5]: 2.1
glycan array binding signal (z-score) [6]: 0.129
glycan array binding signal (z-score) [7]: 1.41
glycan array binding signal (z-score) [8]: 0.386
glycan array binding signal (z-score) [9]: 0.252
glycan array binding signal (z-score) [10]: 1.8
glycan array binding signal (z-score) [11]: -0.937
glycan array binding signal (z-score) [12]: -0.653
glycan array binding signal (z-score) [13]: -0.55
glycan array binding signal (z-score) [14]: 0.001
glycan array binding signal (z-score) [15]: -0.011
glycan array binding signal (z-score) [16]: -0.438
glycan array binding signal (z-score) [17]: 1.88
glycan array binding signal (z-score) [18]: -0.346
glycan array binding signal (z-score) [19]: 0.939
glycan array binding signal (z-score) [20]: -0.316
glycan array binding signal (z-score) [21]: -0.604
glycan array binding signal (z-score) [22]: -0.463
glycan array binding signal (z-score) [23]: 0.111
glycan array binding signal (z-score) [24]: 0.029
glycan array binding signal (z-score) [25]: -0.071
glycan array binding signal (z-score) [26]: 0.562
glycan array binding signal (z-score) [27]: -0.854
glycan array binding signal (z-score) [28]: -0.495
glycan array binding signal (z-score) [29]: -0.345
glycan array binding signal (z-score) [30]: 0.506
glycan array binding signal (z-score) [31]: 0.037
glycan array binding signal (z-score) [32]: -0.708
glycan array binding signal (z-score) [33]: 0.122
glycan array binding signal (z-score) [34]: 0.121
glycan array binding signal (z-score) [35]: 0.979
glycan array binding signal (z-score) [36]: -0.566
glycan array binding signal (z-score) [37]: 0.176

From the supplement of paper PMC8728848
